Reference: patent US10226045B2, “Azoline compounds” (priority 2014, dated 2019)
Some entries share one result that the patent states for a list of compounds.

Tests used:
Format in all cases: in vivo
[1] = system: Orchid Thrips (dichromothrips corbetti); assay: Orchid thrips, floral-immersion technique; conditions: 300 ppm; adult thrips on dipped orchid petals; 72 hours after treatment; in comparison with untreated controls
Experimental: B.7 Orchid Thrips (dichromothrips corbetti)
Dichromothrips corbetti adults used for bioassay were obtained from a colony maintained continuously under laboratory conditions. For testing purposes, the test compound is diluted in a 1:1 mixture of acetone:water (vol:vol), plus Kinetic HV at a rate of 0.01% v/v.
Thrips potency of each compound was evaluated by using a floral-immersion technique. All petals of individual, intact orchid flowers were dipped into treatment solution and allowed to dry in Petri dishes. Treated petals were placed into individual re-sealable plastic along with about 20 adult thrips. All test arenas were held under continuous light and a temperature of about 28° C. for duration of the assay. After 3 days, the numbers of live thrips were counted on each petal. The percent mortality was recorded 72 hours after treatment.

[2] = system: Tobacco Budworm (Heliothis virescens); assay: Tobacco budworm, insect diet microtiter plate test; conditions: 2500 ppm; eggs on sprayed insect diet; egg and larval mortality after 5 days; in comparison with untreated controls
Experimental: B.4 Tobacco Budworm (Heliothis virescens)
For evaluating control of tobacco budworm (HeliothiS virescens) the test unit consisted of 96-well-microtiter plates containing an insect diet and 15-25 H. virescens eggs.
(§1) The compounds were formulated using a solution containing 75% v/v water and 25% v/v DMSO. Different concentrations of formulated compounds were sprayed onto the insect diet at 10 μl, using a custom built micro atomizer, at two replications.
(§2) After application, microtiter plates were incubated at about 28±1° C. and about 80±5% relative humidity for 5 days. Egg and larval mortality was then visually assessed.

[3] = system: Diamond Back Moth (Plutella xylostella); assay: Diamond back moth, cabbage leaf dip test; conditions: 300 ppm; 3rd instar larvae on dipped cabbage leaves; 72 hours after treatment; in comparison with untreated controls
Experimental: B.1 Diamond Back Moth (Plutella xylostella)
The active compound was dissolved at the desired concentration in a mixture of 1:1 (vol:vol) distilled water:aceteone. Surfactant (Kinetic HV) was added at a rate of 0.01% (vol/vol). The test solution was prepared at the day of use.
Leaves of cabbage were dipped in test solution and air-dried. Treated leaves were placed in petri dishes lined with moist filter paper and inoculated with ten 3rd instar larvae. Mortality was recorded 72 hours after treatment.

[4] = system: Mediterranean Fruitfly (Ceratitis capitata); assay: Mediterranean fruitfly, insect diet microtiter plate test; conditions: 2500 ppm; eggs on sprayed insect diet; egg and larval mortality after 5 days; in comparison with untreated controls
Experimental: B.6 Mediterranean Fruitfly (Ceratitis capitata)
as §1, with “For evaluating control of Mediterranean fruitfly (CeratitiS capitata) the test unit consisted of microtiter plates containing an insect diet and 50-80 C. capitata eggs. The” for “The”, “5” for “10”
as §2

[5] = system: Red Spider Mite (Tetranychus kanzawai); assay: Red spider mite, sprayed cowpea beans; conditions: 300 ppm; mites on sprayed cowpea beans; 72 hours after treatment; in comparison with untreated controls
Experimental: B.9 Red Spider Mite (Tetranychus kanzawai)
The active compound was dissolved at the desired concentration in a mixture of 1:1 (vol:vol) distilled water:acetone. Add surfactant (Kinetic HV) was added at a rate of 0.01% (vol/vol). The test solution was prepared at the day of use.
Potted cowpea beans of 4-5 days of age were cleaned with tap water and sprayed with 1-2 ml of the test solution using air driven hand atomizer. The treated plants were allowed to air dry and afterwards inoculated with 30 or more mites by clipping a cassava leaf section from rearing population. Treated plants were placed inside a holding room at about 25-27° C. and about 50-60% relative humidity. Percent mortality was assessed 72 hours after treatment.

[6] = system: Rice Green Leafhopper (Nephotettix virescens); assay: Rice green leafhopper, sprayed rice seedlings; conditions: 300 ppm; adults on sprayed rice seedlings; after 72 hours; in comparison with untreated controls
Experimental: B.8 Rice Green Leafhopper (Nephotettix virescens)
Rice seedlings were cleaned and washed 24 hours before spraying. The active compounds were formulated in 1:1 acetone:water (vol:vol), and 0.01% vol/vol surfactant (Kinetic HV) was added. Potted rice seedlings were sprayed with 5-6 ml test solution, air dried, covered with Mylar cages cages and inoculated with 10 adults. Treated rice plants were kept at about 28-29° C. and relative humidity of about 50-60%. Percent mortality was recorded after 72 hours.

[7] = system: Boll Weevil (Anthonomus grandis); assay: Boll weevil, insect diet microtiter plate test; conditions: 2500 ppm; eggs on sprayed insect diet; egg and larval mortality after 5 days; in comparison with untreated controls
Experimental: B.5 Boll Weevil (Anthonomus grandis)
For evaluating control of boll weevil (Anthonomus grandis) the test unit consisted of 96-well-microtiter plates containing an insect diet and 5-10 A. grandis eggs.
The compounds were formulated using a solution containing 75% v/v water and 25% v/v DMSO. Different concentrations of formulated compounds were sprayed onto the insect diet at 5 μl, using a custom built micro atomizer, at two replications.
After application, microtiter plates were incubated at about 25±1° C. and about 75±5% relative humidity for 5 days. Egg and larval mortality was then visually assessed.

[8] = system: Green Peach Aphid (Myzus persicae); assay: Green peach aphid, systemic test on artificial diet in microtiter plates; conditions: 2500 ppm; adult aphids on treated artificial diet; 3 days; in comparison with untreated controls
From the text: B.2 Green Peach Aphid (Myzus persicae)
For evaluating control of green peach aphid (Myzus persicae) through systemic means the test unit consisted of 96-well-microtiter plates containing liquid artificial diet under an artificial mem brane.
The compounds were formulated using a solution containing 75% v/v water and 25% v/v DMSO. Different concentrations of formulated compounds were pipetted into the aphid diet, using a custom built pipetter, at two replications.
After application, 5-8 adult aphids were placed on the artificial membrane inside the microtiter plate wells. The aphids were then allowed to suck on the treated aphid diet and incubated at about 23±1° C. and about 50±5% relative humidity for 3 days. Aphid mortality and fecundity was then visually assessed.

[9] = system: Vetch Aphid (Megoura viciae); assay: Vetch aphid, broad bean leaf disk test; conditions: 2500 ppm; adult aphids on sprayed broad bean leaf disks; 5 days; in comparison with untreated controls
Experimental: B.3 Vetch Aphid (Megoura viciae)
For evaluating control of vetch aphid (Megoura viciae) through contact or systemic means the test unit consisted of 24-well-microtiter plates containing broad bean leaf disks.
The compounds were formulated using a solution containing 75% v/v water and 25% v/v DMSO. Different concentrations of formulated compounds were sprayed onto the leaf disks at 2.5 μl, using a custom built micro atomizer, at two replications.
After application, the leaf disks were air-dried and 5-8 adult aphids placed on the leaf disks inside the microtiter plate wells. The aphids were then allowed to suck on the treated leaf disks and incubated at about 23±1° C. and about 50±5% relative humidity for 5 days. Aphid mortality and fecundity was then visually assessed.

Measured: mortality

O=C(NCc1nc(C(F)(F)F)cc(C(F)(F)F)n1)c1ccc(C2=NOC(c3cc(Cl)c(F)c(Cl)c3)(C(F)(F)F)C2)c2c1CCC2 (racemic) [Compound 1-68]
at least 75%: [1] | [2]

O=C(NCC1CC1(Cl)Cl)c1ccc(C2=NOC(c3cc(Cl)c(F)c(Cl)c3)(C(F)(F)F)C2)c2c1CCC2 (racemic) [Compound 1-69]
at least 75%: all assays above

Cc1ccnc(CNC(=O)c2ccc(C3=NOC(c4cc(Cl)c(F)c(Cl)c4)(C(F)(F)F)C3)c3c2CCC3)n1 (racemic) [Compound 1-73]
at least 75%: [4] | [7] | [8] | [2] | [9]

Cc1cc(C)nc(CNC(=O)c2ccc(C3=NOC(c4cc(Cl)c(F)c(Cl)c4)(C(F)(F)F)C3)c3c2CCC3)n1 (racemic) [Compound 1-74]
at least 75%: [4] | [7] | [8] | [2] | [9]

Cc1cc(C(F)(F)F)nc(CNC(=O)c2ccc(C3=NOC(c4cc(Cl)c(F)c(Cl)c4)(C(F)(F)F)C3)c3c2CCC3)n1 (racemic) [Compound 1-75]
at least 75%: [4] | [7] | [8] | [2] | [9]

O=C(NCc1ncccn1)c1ccc(C2=NOC(c3ccc(F)c(Cl)c3)(C(F)(F)F)C2)c2c1CCC2 (racemic) [Compound 1-76]
at least 75%: [4] | [7] | [8] | [2] | [9]

O=C(NCc1ccccn1)c1ccc(C2=NOC(c3ccc(F)c(Cl)c3)(C(F)(F)F)C2)c2c1CCC2 (racemic) [Compound 1-77]
at least 75%: [4] | [7] | [8] | [2] | [9]

O=C(CNC(=O)c1ccc(C2=NOC(c3ccc(F)c(Cl)c3)(C(F)(F)F)C2)c2c1CCC2)NCC(F)(F)F (racemic) [Compound 1-78]
at least 75%: [4] | [7] | [8] | [2] | [9]

O=Cc1ccc(C2=NOC(c3cc(Cl)c(F)c(Cl)c3)(C(F)(F)F)C2)c2c1CCC2 (racemic) [Compound 1-80]
at least 75%: [4] | [7] | [8] | [2] | [9]

O=C(O)c1ccc(C2=NOC(c3ccc(F)c(Cl)c3)(C(F)(F)F)C2)c2c1CCC2 (racemic) [Compound 1-81]
at least 75%: [7]

Cn1nnc(CNC(=O)c2ccc(C3=NOC(c4cc(Cl)c(F)c(Cl)c4)(C(F)(F)F)C3)c3c2CCC3)n1 (racemic) [Compound 1-82]
at least 75%: [4] | [7] | [8] | [2] | [9]

NC(=O)c1ccc(C2=NOC(c3cc(Cl)cc(Cl)c3)(C(F)(F)F)C2)c2c1CCC2 (stereo not drawn) [Compound 1-24]
not listed: [5] | [6]
at least 75%: all other assays above

CC(NC(=O)c1ccc(C2=NOC(c3cc(Cl)cc(Cl)c3)(C(F)(F)F)C2)c2c1CCC2)C(=O)NCC(F)(F)F (stereo not drawn) [Compound 1-37]
not listed: [5] | [6]
at least 75%: all other assays above

COC(=O)c1ccc(C2=NCC(c3cc(Cl)cc(Cl)c3)(C(F)(F)F)C2)c2c1CCC2 (stereo not drawn) [Compound 2-16]
at least 75%: [4] | [7]

CC(NC(=O)c1ccc(C2=NOC(c3cc(Cl)cc(Cl)c3)(C(F)(F)F)C2)c2c1CCCC2)C(=O)NCC(F)(F)F (stereo not drawn) [Compound 3-8]
at least 75%: [4] | [7] | [8] | [2] | [9]

CCN1OCC(NC(=O)c2ccc(C3=NOC(c4cc(Cl)cc(Cl)c4)(C(F)(F)F)C3)c3c2CCCC3)C1=O (stereo not drawn) [Compound 3-9]
at least 75%: [4] | [7] | [8] | [2] | [9]

O=C(NCc1cscn1)c1ccc(C2=NOC(c3cc(Cl)cc(Cl)c3)(C(F)(F)F)C2)c2c1CCCC2 (stereo not drawn) [Compound 3-10]
at least 75%: [4] | [7] | [8] | [2] | [9]

O=C(NCc1ncccn1)c1ccc(C2=NOC(c3cc(Cl)cc(Cl)c3)(C(F)(F)F)C2)c2c1CCCC2 (stereo not drawn) [Compound 3-11]
at least 75%: [4] | [7] | [8] | [2] | [9]

O=C(NCc1ccccn1)c1ccc(C2=NOC(c3cc(Cl)cc(Cl)c3)(C(F)(F)F)C2)c2c1CCCC2 (stereo not drawn) [Compound 3-12]
at least 75%: [4] | [7] | [8] | [2] | [9]
